These results are taken from PMC5024327.

Sequences of proteins named here, by UniProt entry; tags and fusion partners are left off.
UniProt Q96A65: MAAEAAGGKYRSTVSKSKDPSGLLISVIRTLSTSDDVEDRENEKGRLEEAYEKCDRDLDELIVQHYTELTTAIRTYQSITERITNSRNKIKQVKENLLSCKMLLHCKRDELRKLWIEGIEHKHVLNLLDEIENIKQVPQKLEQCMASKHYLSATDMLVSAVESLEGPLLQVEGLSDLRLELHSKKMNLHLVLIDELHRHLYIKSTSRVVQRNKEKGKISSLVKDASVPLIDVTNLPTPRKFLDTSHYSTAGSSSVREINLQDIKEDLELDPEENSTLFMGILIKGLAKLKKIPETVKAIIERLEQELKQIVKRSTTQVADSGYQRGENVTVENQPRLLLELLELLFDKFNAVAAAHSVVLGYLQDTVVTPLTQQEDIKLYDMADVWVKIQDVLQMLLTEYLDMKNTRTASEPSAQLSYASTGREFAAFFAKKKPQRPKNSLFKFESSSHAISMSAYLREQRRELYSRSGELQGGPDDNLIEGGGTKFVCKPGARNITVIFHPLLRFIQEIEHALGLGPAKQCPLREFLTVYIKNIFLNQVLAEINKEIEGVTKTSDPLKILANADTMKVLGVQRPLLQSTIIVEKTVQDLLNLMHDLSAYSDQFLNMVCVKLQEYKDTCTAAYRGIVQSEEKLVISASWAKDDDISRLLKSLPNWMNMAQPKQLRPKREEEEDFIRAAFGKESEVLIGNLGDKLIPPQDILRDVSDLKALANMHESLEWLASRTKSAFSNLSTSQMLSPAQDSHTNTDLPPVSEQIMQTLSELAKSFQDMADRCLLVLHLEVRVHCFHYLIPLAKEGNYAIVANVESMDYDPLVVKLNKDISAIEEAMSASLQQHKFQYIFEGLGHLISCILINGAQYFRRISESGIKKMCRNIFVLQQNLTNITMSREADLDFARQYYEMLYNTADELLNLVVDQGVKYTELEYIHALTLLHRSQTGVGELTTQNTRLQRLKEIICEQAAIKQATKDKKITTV

Results are given in words; binding and its absence hold for the method and conditions named. For some assays here: In cells and extracts the contact can be indirect. Some results given as binding are weak or reduced against the parent protein; the word gives no strength. For some assays here: Tags and fused reporters may be left off the sequences shown.

One assay addresses T1, GST-RalA (UniProt P11233).
T1 sequence: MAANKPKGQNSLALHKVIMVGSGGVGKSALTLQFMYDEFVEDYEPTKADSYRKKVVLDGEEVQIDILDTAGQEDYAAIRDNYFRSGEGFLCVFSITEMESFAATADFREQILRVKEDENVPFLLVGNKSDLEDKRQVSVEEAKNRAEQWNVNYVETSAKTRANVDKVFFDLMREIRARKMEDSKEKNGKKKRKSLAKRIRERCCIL
The assay can be described thus: pull-down; 10 μg GST-RalA on GSH beads, loaded with 200 μM GTPγS or 1 mM GDP (or no nucleotide), incubated with HEK293A lysates at 4 °C for 2 hours; Western blot with anti-GFP and anti-Sec8; only the target purified. In general terms: A western blot detects proteins with antibodies after separation by electrophoresis.

In assay [1] the target is T2, RalA, purified, produced in E. coli (UniProt P11233).
T2 sequence: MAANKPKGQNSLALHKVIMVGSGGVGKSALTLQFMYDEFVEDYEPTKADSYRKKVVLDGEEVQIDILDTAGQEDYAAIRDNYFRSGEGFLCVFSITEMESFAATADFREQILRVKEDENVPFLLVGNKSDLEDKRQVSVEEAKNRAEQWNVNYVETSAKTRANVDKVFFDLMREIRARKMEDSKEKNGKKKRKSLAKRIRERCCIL
In words: in vitro binding assays (kind not told); purified M-Sec and RalA, both produced in E. coli; no further detail; both purified.

Turning to Sec8 (from UniProt Q96A65 1-974), the binding result with GST-RalA is “binds”.

B1: M-Sec, purified, produced in E. coli (protein, UniProt Q61333 94-691)
chain: LSDLEVQPKPRPELDGPLPTVEELKEALEHGRLEVAWQVLALERQLEAAAAAGGMSNEELVWRQSKVEALYVLLCDQVLGVLRRPLEAAPERLSQALAVVSQEELEDRRASGGPLAAALEATRPRRWLQRWRGVVAEVAAERLDAQPATAPEGRSEAESRFLHMGRTMKEDLEVVVERLKPLFPDEFNVVRTYAESYHYHFASHLCALAQFELCERDTYLLLLWVQNLYPNDILNSPKLAQELQGVGLGSLLPPKQIRLLEAMFLSNEVTSVKQLMARALELESQRWTQDVAPQSLDGHCHSELAIDILQIISQGQTKAENITSDVGMQIKQLLLVELAALLRSYQRAFDEFLEKSKLLRNYRVNIMANINNCLFFWTSVEQKWQISHDSLNRLLEPLKDLKAHGFDTLLQSLFLDLKPLFKKFTQTRWANPVETLEEIITTVSSSLPEFSELQDCFREELMETVHLHLVKEYIIRLCKRRLVLKTAEQQQQLARHILANADAIQGFCTENGSTATWLHRALPMIAEIIRLQDSSAIKIEVATYATWYPDFSKGHLNAILAIKGNLPSSEVRSIRNILDINTGVQEPPRPLFSLIKVT
Turning to B1, the binding entry in assay [1] is given as “no binding”.
